Experimental data published in the supplement of paper PMC5407854, “Inhibitor of ppGalNAc-T3-mediated O-glycosylation blocks cancer cell invasiveness and lowers FGF23 levels” (eLife, 2017).
The full ranking holds about 1,700 compounds; the median of “T2 sensor activation Q score (MG/GFP ratio z-score vs DMSO controls)” is about 0.3, and the highest 2% start at about 1.9. The list shows a part of the results.

Tested on: ppGalNAc-T2 sensor
Test: T2 sensor activation Q score (MG/GFP ratio z-score vs DMSO controls) (SD units); higher = more sensor activation (inhibition of ppGalNAc-T2 glycosylation)
Conditions: HEK293 sensor cells; 10 µM; 6 h
Experimental: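 Cells were treated with compound at 10 uM for 6 h, then MG/GFP ratio was read by flow cytometry (10,000 cells per well, duplicate wells). Q = (R - R_neg)/SD_neg relative to DMSO vehicle controls; the signal rises when the glycosyltransferase is inhibited.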

Compound	T2 sensor activation Q score
O=c1cc(-c2ccc(Cl)cc2)[nH]c2ccccc12	-0.25
Cc1c(Cc2ccccc2)[n+](=O)c2ccccc2n1[O-]	-0.65
Cc1ccc2c(c1)c1ccc3c(c1n2C)C(=O)C=CC3=O	-0.85
Cc1nc2ccc(Cl)cn2c1[N+](=O)[O-]	0.95
Cc1cc(C)n(C(N)=NC(=O)c2ccccc2)n1	1.3
Cc1ccc2c(c1)sc1nncn12	0.8
Cc1cc(=O)c2c(o1)C(=O)c1occc1C2=O	1.35
CN1CCC(=C2c3ccccc3C(O)c3ccccc32)CC1 (configuration not stated)	0.95
Cn1nnc2c(C(N)=O)ncn2c1=O	-1.3
c1ccc2nc(NN=C3CCCCC3)ccc2c1	-0.1
CCN(CC)c1ccc(/C=C/c2cc(-c3ccccc3)c3ccccc3n2)cc1	-6.65
c1ccc(NCCSc2nc3ccccc3s2)cc1	0.25
C[C@]12CC[C@H](O)CC1=CC[C@@H]1[C@@H]2CC[C@]2(C)C(c3cccnc3)=CC[C@@H]12	-1
CCOc1ccc(NC(=O)Nc2cc(C(C)C)c(O)cc2C)cc1	-0.85
O=C1C=C(c2ccccc2)OC(=O)C1C(=O)c1ccccc1 (configuration not stated)	0.65
C#CCNc1ccc(C(=O)OCC)cc1	-1.25
CC1=CC2C(C(O)CC3(C)C2CC(C)C32OCOC23COCO3)C2(C)CC(=CO)C(=O)C=C12 (configuration not stated)	1.7
CNc1ncn(-c2c(C)cccc2C)c(=O)n1	-0.6
O=[N+]([O-])c1cc(F)c2cccnc2c1O	1.7
Nc1cc2c3c(cccc3c1)C(=O)N(CCN1CCCC1)C2=O	-0.45
Cc1ccc(S(=O)(=O)N2CC=C(N)N2)cc1	0.25

Part of the list above in order of molar mass, smallest number first:
Compound	T2 sensor activation Q score
c1ccc2nc(NN=C3CCCCC3)ccc2c1	-0.1
Cc1ccc2c(c1)c1ccc3c(c1n2C)C(=O)C=CC3=O	-0.85
CN1CCC(=C2c3ccccc3C(O)c3ccccc32)CC1 (configuration not stated)	0.95

Remaining list, next part:

Compound	T2 sensor activation Q score
COc1ccc(-c2cc(-c3ccccc3)c(-c3ccccc3)nn2)cc1	-0.95
Cc1ccncc1C(N)=O	1.85
CCOC(=O)c1csc(-c2ccc(COC(=O)c3ccccc3)o2)n1	-1
CC(C)(C)C1=NN=C2c3ccccc3C(=O)C21 (configuration not stated)	-0.7
CN(C)Cc1c[nH]c2nccnc12	-0.8
Cc1c(O)cnc2nn(-c3ccccc3)c(=N)n12	1.4
c1ccc(-c2nc3ccccc3s2)nc1	0.6
Brc1csc2ncccc12	-0.1
O=[N+]([O-])c1ccc(Sc2ncccn2)c([N+](=O)[O-])c1	1
C1CCc2nc3c(nc2C1)CCCC3	0.85
COc1cc(/C=C2\CCOC2=O)cc(OC)c1OC	0
Cn1c(=O)c2c(nc(OCCc3ccccc3)n2C)n(C)c1=O	-0.25
CO[C@H]1C[C@@H]2CC[C@@H](C)[C@@](O)(O2)C(=O)C(=O)N2CCCC[C@H]2C(=O)O[C@H]([C@H](C)C[C@@H]2CC[C@@H](OC(=O)C(C)(CO)CO)[C@H](OC)C2)CC(=O)[C@H](C)/C=C(\C)[C@@H](O)[C@@H](OC)C(=O)[C@H](C)C[C@H](C)/C=C/C=C/C=C/1C	-0.5
COC1OC2COC(c3ccccc3)OC2C(=O)C1NC(=O)c1ccccc1 (configuration not stated)	0.9
O=C(O)/C(Cc1cn[nH]n1)=N\O	-0.35
CNC(=O)OCN1C(=O)C2CC=CCC2C1=O (configuration not stated)	0.95
Cc1ccc(NC(=O)N2CCN(C)CC2)cc1NC(=O)N1CCN(C)CC1	0.45
CN(C)c1ccc(/C=C2/C=C(c3ccc4c(c3)CCCC4)OC2=O)cc1	-0.75
C1CCC(NC2=NCCO2)CC1	-0.8
Cc1cccc(C)c1NC(=O)NCc1ccco1	-0.85
Cc1nc(Nc2ccc(F)cc2)nc(Nc2ccc(F)cc2)c1[N+](=O)[O-]	-0.35

Compound	T2 sensor activation Q score
Cc1ccc(S(=O)(=O)NNC(=O)C23CCC(CC2)C3)cc1	1.95
C=CCN=C(NC#N)SC	1.35
Nc1ncnc2c1ncn2C=C=CCO	0.15
Cc1ccc(Nc2nccc(N(C)c3ccc4c(C)n(C)nc4c3)n2)cc1S(N)(=O)=O	0.95
COc1ccc2c(C)cc(C)nc2n1	-0.2
CC(C)(C)C(=O)Nc1ccc(NC(=O)C(C)(C)C)cc1	-1.4
CCOC(=O)c1[nH]c(CO)c(C(=O)OCC)c1C	0.15
Cc1nc(N)nc(Cl)c1CCC1OCCO1	1.7
CCCOc1ccc(-c2nc(-c3ccc(N)cc3)cs2)cc1	0.2
COC(=O)C1=C(C)NC(C)=C(C(=O)OC)C(N2C(=O)CCC2=O)C1 (configuration not stated)	-0.65
COC(=O)c1cc(C)c(C)cc1NC1OC(CO)C(O)C1O (configuration not stated)	1.65
Cc1c(O)ccc2c(O)c(NC(=O)c3ccc4c(c3)CCC(C)(C)O4)c(=O)oc12	0.45
CN1C=C/C(=C\[N+](=O)[O-])N(C)C1=O	0.7
O=C(Nc1nnc(C(F)(F)F)s1)c1c(F)cccc1F	-0.85
CN1C(=O)c2ccccc2Cc2c(NCc3ccccc3)ncnc21	-0.35
O=c1cc[nH]c2c(Cl)cccc12	-1
Nc1nc(N)c(N=Nc2ccc(S(N)(=O)=O)cc2)c(=O)[nH]1	0.85
O=C(Nc1ccccc1)C1=C(Nc2ccccc2)CSC1	-1.55
Cc1cc2nc(-c3ccccn3)c(-c3ccccn3)nc2cc1C	2.4
Nc1ccc(Nc2ccccc2)c(S(=O)(=O)O)c1	0.65

Entries from the list above that contain sulfur:
Compound	T2 sensor activation Q score
Cc1ccc2c(c1)sc1nncn12	0.8
c1ccc(NCCSc2nc3ccccc3s2)cc1	0.25
Cc1ccc(S(=O)(=O)N2CC=C(N)N2)cc1	0.25
CCOC(=O)c1csc(-c2ccc(COC(=O)c3ccccc3)o2)n1	-1
c1ccc(-c2nc3ccccc3s2)nc1	0.6
Brc1csc2ncccc12	-0.1
O=[N+]([O-])c1ccc(Sc2ncccn2)c([N+](=O)[O-])c1	1
Cc1ccc(S(=O)(=O)NNC(=O)C23CCC(CC2)C3)cc1	1.95
C=CCN=C(NC#N)SC	1.35
Cc1ccc(Nc2nccc(N(C)c3ccc4c(C)n(C)nc4c3)n2)cc1S(N)(=O)=O	0.95
CCCOc1ccc(-c2nc(-c3ccc(N)cc3)cs2)cc1	0.2
O=C(Nc1nnc(C(F)(F)F)s1)c1c(F)cccc1F	-0.85
Nc1nc(N)c(N=Nc2ccc(S(N)(=O)=O)cc2)c(=O)[nH]1	0.85
O=C(Nc1ccccc1)C1=C(Nc2ccccc2)CSC1	-1.55
Nc1ccc(Nc2ccccc2)c(S(=O)(=O)O)c1	0.65
